Assay results published in PMC7028737.
These are yes or no findings as the source states them, for the method shown. In cells and extracts the contact can be indirect. Here binding means that the protein was enriched with, or labelled near, the bait; the list need not be complete. No binding means not detected with the bait.

Chains of the proteins cited; added tags and fusions are not shown. Lines headed by an entry give the natural chain unless they say otherwise; changes in a name come on top. A line that says so, or that is headed by a name, gives the form on record, which may keep a tag or linker.
FIR-FLAG (far-upstream element-binding protein (FUBP) 1-interacting repressor) (Q9UHX1, form named): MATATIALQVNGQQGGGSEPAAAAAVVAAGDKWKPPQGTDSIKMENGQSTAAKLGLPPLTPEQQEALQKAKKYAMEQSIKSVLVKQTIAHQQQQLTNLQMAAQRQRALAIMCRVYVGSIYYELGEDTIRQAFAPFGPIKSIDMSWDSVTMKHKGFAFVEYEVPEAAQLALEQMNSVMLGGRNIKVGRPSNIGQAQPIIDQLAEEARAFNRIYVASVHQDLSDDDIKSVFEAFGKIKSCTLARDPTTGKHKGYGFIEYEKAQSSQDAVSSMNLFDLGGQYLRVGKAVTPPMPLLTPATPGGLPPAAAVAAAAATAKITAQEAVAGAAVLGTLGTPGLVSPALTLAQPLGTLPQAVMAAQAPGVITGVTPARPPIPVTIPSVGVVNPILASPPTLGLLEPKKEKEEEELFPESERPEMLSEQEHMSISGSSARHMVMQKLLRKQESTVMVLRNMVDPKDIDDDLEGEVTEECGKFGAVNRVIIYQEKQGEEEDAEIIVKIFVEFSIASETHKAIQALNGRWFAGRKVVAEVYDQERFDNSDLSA
UniProt P01040: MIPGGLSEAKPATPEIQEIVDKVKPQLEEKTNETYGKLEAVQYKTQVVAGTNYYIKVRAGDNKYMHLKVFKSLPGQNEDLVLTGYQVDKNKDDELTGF
UniProt P09874: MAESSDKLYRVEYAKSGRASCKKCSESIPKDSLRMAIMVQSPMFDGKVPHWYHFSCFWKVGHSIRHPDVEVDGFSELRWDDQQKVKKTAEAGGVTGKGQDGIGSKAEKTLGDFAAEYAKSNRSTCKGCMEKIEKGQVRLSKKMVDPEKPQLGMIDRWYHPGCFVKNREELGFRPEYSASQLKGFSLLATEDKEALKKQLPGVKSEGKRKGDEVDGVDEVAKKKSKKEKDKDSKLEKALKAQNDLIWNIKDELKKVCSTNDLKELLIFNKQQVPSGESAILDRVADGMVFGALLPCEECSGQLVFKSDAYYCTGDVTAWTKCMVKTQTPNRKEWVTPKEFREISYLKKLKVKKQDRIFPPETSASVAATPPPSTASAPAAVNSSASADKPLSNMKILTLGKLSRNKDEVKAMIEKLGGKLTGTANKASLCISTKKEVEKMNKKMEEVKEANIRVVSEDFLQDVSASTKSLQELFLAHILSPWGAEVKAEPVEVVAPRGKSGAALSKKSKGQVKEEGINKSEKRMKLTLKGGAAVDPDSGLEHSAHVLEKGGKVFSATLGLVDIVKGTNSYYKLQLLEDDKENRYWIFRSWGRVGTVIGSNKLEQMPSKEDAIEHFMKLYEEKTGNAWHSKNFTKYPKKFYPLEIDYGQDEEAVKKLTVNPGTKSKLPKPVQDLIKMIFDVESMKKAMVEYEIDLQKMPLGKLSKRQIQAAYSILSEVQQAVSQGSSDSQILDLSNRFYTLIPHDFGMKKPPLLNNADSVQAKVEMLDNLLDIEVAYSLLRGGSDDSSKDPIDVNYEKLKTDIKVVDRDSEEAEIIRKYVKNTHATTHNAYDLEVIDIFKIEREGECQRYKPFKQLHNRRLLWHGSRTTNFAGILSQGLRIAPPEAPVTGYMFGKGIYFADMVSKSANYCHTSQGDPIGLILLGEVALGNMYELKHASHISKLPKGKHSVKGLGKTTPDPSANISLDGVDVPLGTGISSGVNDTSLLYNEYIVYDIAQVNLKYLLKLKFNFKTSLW
UniProt P07737: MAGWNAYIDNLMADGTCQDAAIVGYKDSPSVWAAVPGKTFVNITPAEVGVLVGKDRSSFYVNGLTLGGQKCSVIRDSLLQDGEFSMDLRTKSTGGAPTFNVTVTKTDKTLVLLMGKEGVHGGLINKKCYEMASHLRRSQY
UniProt P23528: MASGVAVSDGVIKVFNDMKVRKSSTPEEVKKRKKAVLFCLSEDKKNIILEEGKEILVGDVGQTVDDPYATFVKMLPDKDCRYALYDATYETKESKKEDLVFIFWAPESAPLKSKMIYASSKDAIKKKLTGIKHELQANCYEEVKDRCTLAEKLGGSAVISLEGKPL
UniProt O15020: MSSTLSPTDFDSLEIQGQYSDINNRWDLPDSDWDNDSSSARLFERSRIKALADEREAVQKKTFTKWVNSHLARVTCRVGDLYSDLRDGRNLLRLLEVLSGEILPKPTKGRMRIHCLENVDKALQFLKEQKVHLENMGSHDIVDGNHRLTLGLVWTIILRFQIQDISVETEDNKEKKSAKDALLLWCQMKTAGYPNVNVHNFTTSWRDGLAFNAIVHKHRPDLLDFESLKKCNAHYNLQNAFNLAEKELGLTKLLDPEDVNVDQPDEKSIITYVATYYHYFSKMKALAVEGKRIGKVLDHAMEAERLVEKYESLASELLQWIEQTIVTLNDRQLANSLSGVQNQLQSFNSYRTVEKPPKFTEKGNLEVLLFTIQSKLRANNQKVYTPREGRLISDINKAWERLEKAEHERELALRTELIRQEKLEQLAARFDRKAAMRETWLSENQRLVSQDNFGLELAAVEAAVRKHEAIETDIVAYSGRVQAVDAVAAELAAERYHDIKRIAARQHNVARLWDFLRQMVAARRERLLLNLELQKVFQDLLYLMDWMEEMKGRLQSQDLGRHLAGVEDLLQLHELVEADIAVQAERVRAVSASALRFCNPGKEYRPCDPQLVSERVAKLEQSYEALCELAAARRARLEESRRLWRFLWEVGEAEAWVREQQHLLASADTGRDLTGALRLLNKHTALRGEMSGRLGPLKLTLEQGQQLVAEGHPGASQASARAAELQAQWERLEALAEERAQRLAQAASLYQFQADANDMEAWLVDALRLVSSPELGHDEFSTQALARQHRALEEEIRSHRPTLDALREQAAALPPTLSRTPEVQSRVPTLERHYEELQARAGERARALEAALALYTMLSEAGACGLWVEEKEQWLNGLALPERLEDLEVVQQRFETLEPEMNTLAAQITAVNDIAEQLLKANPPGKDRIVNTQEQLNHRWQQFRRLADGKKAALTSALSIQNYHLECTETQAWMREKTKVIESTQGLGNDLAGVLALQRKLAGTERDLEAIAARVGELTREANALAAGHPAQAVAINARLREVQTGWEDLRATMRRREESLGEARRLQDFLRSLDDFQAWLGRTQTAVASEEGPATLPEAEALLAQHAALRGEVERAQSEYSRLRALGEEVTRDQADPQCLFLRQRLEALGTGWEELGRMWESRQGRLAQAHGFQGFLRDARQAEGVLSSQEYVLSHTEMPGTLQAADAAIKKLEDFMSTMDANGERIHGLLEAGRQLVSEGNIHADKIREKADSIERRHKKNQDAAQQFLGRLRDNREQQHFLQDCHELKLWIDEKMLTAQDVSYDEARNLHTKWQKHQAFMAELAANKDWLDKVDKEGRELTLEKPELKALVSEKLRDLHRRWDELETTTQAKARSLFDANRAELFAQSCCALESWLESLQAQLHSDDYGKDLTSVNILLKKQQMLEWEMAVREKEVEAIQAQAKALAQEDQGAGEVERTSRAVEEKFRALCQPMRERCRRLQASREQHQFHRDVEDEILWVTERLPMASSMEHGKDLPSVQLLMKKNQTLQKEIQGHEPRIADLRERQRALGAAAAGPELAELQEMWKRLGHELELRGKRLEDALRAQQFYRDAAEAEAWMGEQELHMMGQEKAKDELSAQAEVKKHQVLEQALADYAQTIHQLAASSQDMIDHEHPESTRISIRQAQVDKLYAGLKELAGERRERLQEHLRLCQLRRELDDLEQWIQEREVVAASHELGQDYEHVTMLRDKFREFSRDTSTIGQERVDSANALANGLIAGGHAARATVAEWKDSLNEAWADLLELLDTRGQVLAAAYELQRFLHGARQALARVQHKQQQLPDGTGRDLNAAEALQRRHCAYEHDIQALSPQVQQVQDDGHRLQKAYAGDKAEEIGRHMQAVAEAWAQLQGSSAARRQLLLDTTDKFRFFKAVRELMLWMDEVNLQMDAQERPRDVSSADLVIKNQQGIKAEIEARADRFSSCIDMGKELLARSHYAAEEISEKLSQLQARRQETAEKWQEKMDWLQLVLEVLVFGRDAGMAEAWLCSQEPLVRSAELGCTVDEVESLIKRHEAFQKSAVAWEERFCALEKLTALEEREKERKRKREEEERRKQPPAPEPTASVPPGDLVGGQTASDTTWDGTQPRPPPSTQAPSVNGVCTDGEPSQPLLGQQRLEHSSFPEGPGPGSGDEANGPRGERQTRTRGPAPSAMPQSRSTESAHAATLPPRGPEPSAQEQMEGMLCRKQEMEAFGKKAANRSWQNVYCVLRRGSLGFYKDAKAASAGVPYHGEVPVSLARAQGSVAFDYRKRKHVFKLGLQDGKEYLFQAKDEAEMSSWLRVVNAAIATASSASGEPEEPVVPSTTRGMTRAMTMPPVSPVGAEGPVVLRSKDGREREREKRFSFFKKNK
UniProt O60506: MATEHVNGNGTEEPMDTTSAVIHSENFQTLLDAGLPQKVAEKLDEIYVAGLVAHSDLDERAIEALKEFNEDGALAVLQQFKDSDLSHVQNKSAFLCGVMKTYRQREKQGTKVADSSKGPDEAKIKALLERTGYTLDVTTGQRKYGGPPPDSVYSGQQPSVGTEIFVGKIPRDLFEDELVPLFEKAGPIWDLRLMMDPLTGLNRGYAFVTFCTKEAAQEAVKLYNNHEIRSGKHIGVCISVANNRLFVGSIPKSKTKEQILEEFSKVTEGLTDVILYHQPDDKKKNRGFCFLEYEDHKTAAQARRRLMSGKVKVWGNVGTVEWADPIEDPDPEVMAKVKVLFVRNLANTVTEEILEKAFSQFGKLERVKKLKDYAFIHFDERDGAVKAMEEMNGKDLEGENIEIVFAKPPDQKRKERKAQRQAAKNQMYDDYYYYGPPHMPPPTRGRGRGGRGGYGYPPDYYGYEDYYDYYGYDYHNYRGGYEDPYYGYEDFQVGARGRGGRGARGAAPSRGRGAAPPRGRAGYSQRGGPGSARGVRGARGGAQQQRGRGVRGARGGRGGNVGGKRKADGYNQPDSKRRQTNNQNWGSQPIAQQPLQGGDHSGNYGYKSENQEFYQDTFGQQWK
UniProt Q14974: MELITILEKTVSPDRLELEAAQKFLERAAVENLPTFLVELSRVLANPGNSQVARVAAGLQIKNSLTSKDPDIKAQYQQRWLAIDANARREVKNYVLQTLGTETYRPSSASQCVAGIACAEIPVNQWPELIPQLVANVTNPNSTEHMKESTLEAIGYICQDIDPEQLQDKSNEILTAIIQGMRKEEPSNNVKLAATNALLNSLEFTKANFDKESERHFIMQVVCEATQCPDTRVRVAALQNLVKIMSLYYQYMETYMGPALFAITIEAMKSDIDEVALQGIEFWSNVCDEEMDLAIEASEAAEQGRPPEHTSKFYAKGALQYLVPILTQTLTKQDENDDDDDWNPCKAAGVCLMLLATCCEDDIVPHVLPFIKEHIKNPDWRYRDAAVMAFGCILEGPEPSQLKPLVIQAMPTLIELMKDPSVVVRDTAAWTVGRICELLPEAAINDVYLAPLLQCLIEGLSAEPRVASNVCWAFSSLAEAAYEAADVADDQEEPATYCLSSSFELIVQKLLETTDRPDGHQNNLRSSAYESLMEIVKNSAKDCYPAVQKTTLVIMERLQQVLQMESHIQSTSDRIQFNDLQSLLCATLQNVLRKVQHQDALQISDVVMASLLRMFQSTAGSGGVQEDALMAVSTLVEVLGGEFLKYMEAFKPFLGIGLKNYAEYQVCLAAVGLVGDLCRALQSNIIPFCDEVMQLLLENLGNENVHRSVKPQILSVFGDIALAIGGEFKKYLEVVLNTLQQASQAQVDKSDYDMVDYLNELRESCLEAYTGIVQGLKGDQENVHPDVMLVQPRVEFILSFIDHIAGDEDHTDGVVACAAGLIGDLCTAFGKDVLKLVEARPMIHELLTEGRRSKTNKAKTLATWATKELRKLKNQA
UniProt P11940: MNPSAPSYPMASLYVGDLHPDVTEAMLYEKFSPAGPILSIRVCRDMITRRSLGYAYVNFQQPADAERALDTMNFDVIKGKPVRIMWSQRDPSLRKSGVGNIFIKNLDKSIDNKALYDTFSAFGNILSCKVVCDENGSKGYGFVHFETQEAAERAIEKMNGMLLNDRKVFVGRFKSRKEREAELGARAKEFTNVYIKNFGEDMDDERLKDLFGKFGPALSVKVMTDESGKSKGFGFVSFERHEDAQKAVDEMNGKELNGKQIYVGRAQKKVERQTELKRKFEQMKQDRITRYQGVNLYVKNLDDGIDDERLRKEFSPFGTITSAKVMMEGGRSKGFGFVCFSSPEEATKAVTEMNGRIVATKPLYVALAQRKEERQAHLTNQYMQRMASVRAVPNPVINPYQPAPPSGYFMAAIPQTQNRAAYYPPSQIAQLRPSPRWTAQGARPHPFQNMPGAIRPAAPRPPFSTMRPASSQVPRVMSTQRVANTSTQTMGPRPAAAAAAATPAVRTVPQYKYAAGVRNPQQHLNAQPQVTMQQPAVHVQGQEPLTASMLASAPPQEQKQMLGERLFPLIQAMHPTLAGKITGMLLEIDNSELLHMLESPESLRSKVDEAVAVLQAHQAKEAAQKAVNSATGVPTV

B1: Myosin-Ie (protein, UniProt Q12965 1-1108)
chain: MGSKGVYQYHWQSHNVKHSGVDDMVLLSKITENSIVENLKKRYMDDYIFTYIGSVLISVNPFKQMPYFGEKEIEMYQGAAQYENPPHIYALADNMYRNMIIDRENQCVIISGESGAGKTVAAKYIMSYISRVSGGGTKVQHVKDIILQSNPLLEAFGNAKTVRNNNSSRFGKYFEIQFSPGGEPDGGKISNFLLEKSRVVMRNPGERSFHIFYQLIEGASAEQKHSLGITSMDYYYYLSLSGSYKVDDIDDRREFQETLHAMNVIGIFAEEQTLVLQIVAGILHLGNISFKEVGNYAAVESEEFLAFPAYLLGINQDRLKEKLTSRQMDSKWGGKSESIHVTLNVEQACYTRDALAKALHARVFDFLVDSINKAMEKDHEEYNIGVLDIYGFEIFQKNGFEQFCINFVNEKLQQIFIELTLKAEQEEYVQEGIRWTPIEYFNNKIVCDLIENKVNPPGIMSILDDVCATMHAVGEGADQTLLQKLQMQIGSHEHFNSWNQGFIIHHYAGKVSYDMDGFCERNRDVLFMDLIELMQSSELPFIKSLFPENLQADKKGRPTTAGSKIKKQANDLVSTLMKCTPHYIRCIKPNETKKPRDWEESRVKHQVEYLGLKENIRVRRAGYAYRRIFQKFLQRYAILTKATWPSWQGEEKQGVLHLLQSVNMDSDQFQLGRSKVFIKAPESLFLLEEMRERKYDGYARVIQKSWRKFVARKKYVQMREEASDLLLNKKERRRNSINRNFIGDYIGMEEHPELQQFVGKREKIDFADTVTKYDRRFKGVKRDLLLTPKCLYLIGREKVKQGPDKGLVKEVLKRKIEIERILSVSLSTMQDDIFILHEQEYDSLLESVFKTEFLSLLAKRYEEKTQKQLPLKFSNTLELKLKKENWGPWSAGGSRQVQFHQGFGDLAVLKPSNKVLQVSIGPGLPKNSRPTRRNTTQNTGYSSGTQNANYPVRAAPPPPGYHQNGVIRNQYVPYPHAPGSQRSNQKSLYTSMARPPLPRQQSTSSDRVSQTPESLDFLKVPDQGAAGVRRQTTSRPPPAGGRPKPQPKPKPQVPQCKALYAYDAQDTDELSFNANDIIDIIKEDPSGWWTGRLRGKQGLFPNNYVTKI
B2: EF-hand domain-containing protein D1 (protein, UniProt Q9BUP0 1-239)
chain: MASEELACKLERRLRREEAEESGPQLAPLGAPAPEPKPEPEPPARAPTASADAELSAQLSRRLDINEGAARPRRCRVFNPYTEFPEFSRRLIKDLESMFKLYDAGRDGFIDLMELKLMMEKLGAPQTHLGLKSMIKEVDEDFDGKLSFREFLLIFHKAAAGELQEDSGLMALAKLSEIDVALEGVKGAKNFFEAKVQALSSASKFEAELKAEQDERKREEEERRLRQAAFQKLKANFNT
B3: Tropomodulin-1 (protein, UniProt P28289 1-359)
chain: MSYRRELEKYRDLDEDEILGALTEEELRTLENELDELDPDNALLPAGLRQKDQTTKAPTGPFKREELLDHLEKQAKEFKDREDLVPYTGEKRGKVWVPKQKPLDPVLESVTLEPELEEALANASDAELCDIAAILGMHTLMSNQQYYQALSSSSIMNKEGLNSVIKPTQYKPVPDEEPNSTDVEETLERIKNNDPKLEEVNLNNIRNIPIPTLKAYAEALKENSYVKKFSIVGTRSNDPVAYALAEMLKENKVLKTLNVESNFISGAGILRLVEALPYNTSLVEMKIDNQSQPLGNKVEMEIVSMLEKNATLLKFGYHFTQQGPRLRASNAMMNNNDLVRKRRLADLTGPIIPKCRSGV
B4: Isoform 1 of Probable ATP-dependent RNA helicase DDX31 (protein, UniProt Q9H8H2 1-851)
chain: MAPDLASQRHSESFPSVNSRPNVILPGREGRREGLPPGGGTRGSLVPTRPVPPSPAPLGTSPYSWSRSGPGRGGGAGSSRVPRGVPGPAVCAPGSLLHHASPTQTMAAADGSLFDNPRTFSRRPPAQASRQAKATKRKYQASSEAPPAKRRNETSFLPAKKTSVKETQRTFKGNAQKMFSPKKHSVSTSDRNQEERQCIKTSSLFKNNPDIPELHRPVVKQVQEKVFTSAAFHELGLHPHLISTINTVLKMSSMTSVQKQSIPVLLEGRDALVRSQTGSGKTLAYCIPVVQSLQAMESKIQRSDGPYALVLVPTRELALQSFDTVQKLLKPFTWIVPGVLMGGEKRKSEKARLRKGINILISTPGRLVDHIKSTKNIHFSRLRWLVFDEADRILDLGFEKDITVILNAVNAECQKRQNVLLSATLTEGVTRLADISLHDPVSISVLDKSHDQLNPKDKAVQEVCPPPAGDKLDSFAIPESLKQHVTVVPSKLRLVCLAAFILQKCKFEEDQKMVVFFSSCELVEFHYSLFLQTLLSSSGAPASGQLPSASMRLKFLRLHGGMEQEERTAVFQEFSHSRRGVLLCTDVAARGLDLPQVTWIVQYNAPSSPAEYIHRIGRTARIGCHGSSLLILAPSEAEYVNSLASHKINVSEIKMEDILCVLTRDDCFKGKRWGAQKSHAVGPQEIRERATVLQTVFEDYVHSSERRVSWAKKALQSFIQAYATYPRELKHIFHVRSLHLGHVAKSFGLRDAPRNLSALTRKKRKAHVKRPDLHKKTQSKHSLAEILRSEYSSGMEADIAKVKKQNAPGEPGGRPLQHSLQPTPCFGRGKTLKWRKTQKGVQRDSKTSQKV

Target: FIR-FLAG (far-upstream element-binding protein (FUBP) 1-interacting repressor) (human) (UniProt Q9UHX1)
Assay: affinity purification with mass spectrometry; Flag-conjugated beads pull down of FIR-FLAG or FIRΔexon2-FLAG from HeLa cells, GeLC-MS / LC-MS; data first obtained with the cell systems of ref. 9 and re-evaluated here

binding	Molecule
binds	Cystatin-A (from UniProt P01040 1-98)
binds	Ribosome biogenesis protein BOP1 (from UniProt Q14137 1-746)
binds	14-3-3 protein epsilon (from UniProt P62258 1-255)
binds	Poly [ADP-ribose] polymerase 1 (from UniProt P09874 1-1014)
binds	Isoform 1 of Chromodomain-helicase-DNA-binding protein 4 (from UniProt Q14839 1-1912)
binds	Isoform 1 of Fragile X mental retardation syndrome-related protein 1 (from UniProt P51114 1-621)
binds	Isoform 1 of Drebrin (from UniProt Q16643 1-649)
binds	Profilin-1 (from UniProt P07737 1-140)
binds	Isoform 1 of Nexilin (from UniProt Q0ZGT2 1-675)
binds	Cofilin-1 (from UniProt P23528 1-166)
binds	protein phosphatase 1, regulatory subunit 9B (from UniProt Q96SB3 1-817)
no binding	Isoform 1 of Transformation/transcription domain-associated protein (from UniProt Q9Y4A5 1-3859)
binds	Apolipoprotein A-I (from UniProt P02647 19-267)
binds	Splicing factor 3B subunit 1(SAP155) (from UniProt O75533 1-1304)
binds	Isoform 1 of Spectrin beta chain, brain 2 (from UniProt O15020 1-2390)
binds	Isoform 1 of Heterogeneous nuclear ribonucleoprotein Q (from UniProt O60506 1-623)
binds	Fragile X mental retardation syndrome-related protein 2 (from UniProt P51116 1-673)
binds	TDP43 (from UniProt Q13148 1-414)
binds	Tricarboxylate transport protein, mitochondrial (from UniProt P53007 14-311)
binds	Nuclear cap-binding protein subunit 1 (from UniProt Q09161 1-790)

binding	Molecule
binds	epiplakin 1 (from UniProt P58107 1-5088)
binds	Importin subunit beta-1 (from UniProt Q14974 1-876)
binds	Heat shock protein HSP 90-beta (from UniProt P08238 1-724)
binds	Actin-related protein 2/3 complex subunit 1B (from UniProt O15143 1-372)
binds	Isoform 1 of U5 small nuclear ribonucleoprotein 200 kDa helicase (from UniProt O75643 1-2136)
binds	Isoform 1 of Actin-binding LIM protein 1 (from UniProt O14639 1-778)
binds	Isoform 1 of Sequestosome-1 (from UniProt Q13501 1-440)
binds	Actin-related protein 2/3 complex subunit 1 A (from UniProt Q92747 1-370)
binds	60 kDa heat shock protein, mitochondrial (from UniProt P10809 27-573)
binds	LIM domain and actin-binding 1 isoform a (from UniProt Q9UHB6 1-759)
binds	Protein MAK16 homolog (from UniProt Q9BXY0 1-300)
binds	Isoform 1 of Guanine nucleotide-binding protein G(i), alpha-2 subunit (from UniProt P04899 1-355)
binds	Isoform 1 of DNA-dependent protein kinase catalytic subunit (from UniProt P78527 1-4128)
binds	F-actin-capping protein subunit alpha-2 (from UniProt P47755 1-286)
binds	Src substrate cortactin (from UniProt Q14247 1-550)
binds	cDNA FLJ37875 fis, clone BRSSN2018771, highly similar to Poly(A)-binding protein 1 (from UniProt P11940 1-636)
binds	B1
binds	B2
binds	B3
binds	B4

Molecule	binding
RNA-binding protein, autoantigenic (HnRNP-associated with lethal yellow homolog (Mouse)), isoform CRA_a (Fragment) (from UniProt Q9UKM9 1-306)	binds
